From patent US20110123532A1 come the findings set out here.

Results are given in words; binding and its absence hold for the method and conditions named. Some entries that bind do so weakly or less than the wild type.

In experiment [1] the target is T1, mouse VEGF (mouse) (UniProt Q00731).
T1 sequence (looked up): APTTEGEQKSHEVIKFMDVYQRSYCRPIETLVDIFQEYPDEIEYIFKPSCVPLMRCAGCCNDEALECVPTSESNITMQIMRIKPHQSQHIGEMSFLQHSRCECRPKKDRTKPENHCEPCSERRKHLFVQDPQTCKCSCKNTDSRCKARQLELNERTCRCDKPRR
As to the kind of experiment: SPR (Biacore 2000).

The target in experiment [2] is T1, mouse VEGF (mouse). The experiment is described as follows: SPR (Biacore 2000), title of Table 2.

B1: 219R0202 IgG (anti-VEGF antibody reformatted to IgG2) (antibody, V domains shown)
VH: QVQLKQSGAELVKPGASVKLSCKASGYTFTNYWMHWVKLRPGQGFEWIGDINPSNGGTSYNEKFKRKATLTVDKSSSTAYMQLSSLTSEDSAVYYCTIHYYDNSYAMDYWGQGTSVTVSS
VL: DIQLTQSPSSLSASVGDRVTITCRASQGINNHLAWYQQKPGKVPKSLIYAASNLHSGVPSKFSGSGSGTHFTLIISSLQPEDIATYYCQQYDNLPLTFGGGTKVEIKR
Turning to B1, the binding entry in the experiment with mouse VEGF (mouse) [1] and with mouse VEGF (mouse) [2] was “binds” throughout.

B2: 219R0302 IgG (anti-VEGF antibody reformatted to IgG2) (antibody, V domains shown)
VH: QVQLKQSGAELVKPGASVKLSCKASGYTFTNYWMHWVKLRPGQGFEWIGDINPSNGGTSYNEKFKRKATLTVDKSSSTAYMQLSSLTSEDSAVYYCTIHYYDNSYAMDYWGQGTSVTVSS
VL: DIQMTQSPSSLSASVGDRVTITCQASQDISNYVNWYQQKPGKAPKLLIYDASNLQTGVPSRFSGRGSGTHFTFTISSLQPEDLATYYCQQYDDLPPTFGRGTKLEIKR
Regarding B2, the binding result in the experiment with mouse VEGF (mouse) [1] and with mouse VEGF (mouse) [2] was “binds” throughout.
